PubChem BioAssay AID743454 – Peter MacCallum Cancer Centre | 2014

- Purpose: 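Genes whose loss kills vorinostat-resistant colon cancer cells under vorinostat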 (primary screen)
- Cell system: human HCT116-VR colon cancer cells, selected for vorinostat resistance
- Knock-down reagent: siRNA pool against human genes, 40 nM siRNA pool
- Duration: vorinostat for 24 h, read-out about 72 h after transfection
- Conditions: vorinostat at 2.5 µM final
- Read-out: 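Cell viability by CellTiter-Fluor and caspase 3/7 activity by luminescence, each scaled to mock wells per plate, duplicates averaged, then robust z-scored over all plates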
- Reading the numbers: viability robust z-score: higher = more viable cells than screen typical; caspase robust z-score: higher = more caspase 3/7 activity than screen typical
- Active means: 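Hits are knock-downs in viability class RV1/RV2 or caspase class CA1/CA2, excluding ones that killed cells in the no-drug cell-count arm; hits then retested with single siRNAs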
The deposit covers about 18,000 reagents; shown is an unselected part. 450 of all reagents (2.5%) count as active. 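Single biological run; no consistent viability z cut-off exists, so the class columns, not z-scores, define the calls.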 Reagent sequences are not shown.

gene	viability hit class	caspase hit class	viability robust z-score	caspase robust z-score	Outcome
CFAP91	no change	no change	-0.58	1.17	inactive
TCERG1	no change	no change	-0.44	0.62	inactive
IMMP1L	no change	no change	0.13	2.52	inactive
YWHAH	no change	no change	0.72	0.66	inactive
ATF7IP2	no change	no change	-0.48	-0.54	inactive
TRIM17	no change	no change	-0.55	2.14	inactive
NCOA4	no change	CA2 (caspase activation)	-3.71	5.55	active
H2BC15	no change	no change	0.96	1.54	inactive
ARHGAP11A	no change	no change	0.7	0.93	inactive
ICOS	no change	no change	0.32	-0.7	inactive
DACT1	no change	no change	-0.06	1.96	inactive
PPP2R2B	no change	no change	0.24	-0.54	inactive
SDHAF4	no change	no change	-0.32	-0.24	inactive
ZNF580	no change	no change	-0.7	0.11	inactive
MS4A1	no change	no change	0.33	-0.04	inactive
LOC401052 (retired record)	no change	no change	0.16	-0.5	inactive
GRB14	no change	no change	0.76	-1.16	inactive
SACK1F	no change	no change	1.04	1.6	inactive
DDX27	no change	no change	-1.68	-1.29	inactive
COQ6	no change	no change	0.22	-0.36	inactive
NXNL1	no change	no change	0.2	0.72	inactive
NUTM2G	no change	no change	0.58	-0.96	inactive
GPR45	no change	no change	0.2	0.29	inactive
CCDC116	no change	no change	-0.83	0.22	inactive
SLC37A4	no change	no change	-0.02	0.03	inactive
NAA40	no change	no change	-2.38	-0.39	inactive
TSPYL5	no change	no change	-0.06	-0.23	inactive
NT5DC2	no change	no change	1.82	1.6	inactive
KLHL11	no change	no change	0.44	-0.9	inactive
PSEN2	no change	no change	0.58	0.19	inactive
PIP5KL1	no change	no change	0.34	-0.34	inactive
BSDC1	no change	no change	-0.09	-0.57	inactive
IFT56	no change	no change	0.81	0.11	inactive
ZNF711	no change	no change	0.22	-0.17	inactive
PTCD1	no change	no change	0.34	-0.25	inactive
CYFIP2	no change	no change	-0.82	0.36	inactive
UVSSA	no change	no change	-0.01	-0.42	inactive
ZNF341	no change	no change	0.92	-0.53	inactive
PSIP1	no change	no change	0.5	1.6	inactive
